Reference: the supplement of paper PMC8728848
The list shows a part of the results.

Key:
Experiment in all cases: glycan array binding signal (z-score within array); higher = stronger binding
Settings in all cases: glycan notation: IUPAC condensed, linker removed; mutation: H213R,G256S
Neu5Ac(a2-3)Gal(b1-4)Glc = target: Neu5Ac(a2-3)Gal(b1-4)Glc
Outline: (§1)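 The binding signal is a Z-score computed within each array. Data were drawn from 3228 arrays in the Consortium for Functional Glycomics database, restricted to those with a known protein sequence. Scores were averaged over arrays of the same protein sequence at different concentrations or buffers, and over linkers, and negative values can be taken as non-binding.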

[1] = target: Neu5Ac(a2-3)Gal(b1-4)GlcNAc
Outline: as §1

[2] = target: Neu5Ac(a2-3)Gal(b1-4)GlcNAc(b1-3)Gal(b1-3)GlcNAc
Outline: as §1

[3] = target: Neu5Ac(a2-3)Gal(b1-4)GlcNAc(b1-3)Gal(b1-4)GlcNAc
Outline: as §1

[4] = target: Neu5Ac(a2-3)Gal(b1-4)GlcNAc(b1-3)Gal(b1-4)GlcNAc(b1-3)Gal(b1-4)GlcNAc
Outline: as §1

[5] = target: Neu5Ac(a2-3)Gal(b1-4)GlcNAc(b1-3)Gal(b1-4)[Fuc(a1-3)]GlcNAc
Outline: as §1

[6] = target: Neu5Ac(a2-3)Gal(b1-4)GlcNAc(b1-6)[Gal(b1-3)]GalNAc
Outline: as §1

[7] = target: Neu5Ac(a2-3)Gal(b1-4)GlcNAc6S
Outline: as §1

[8] = target: Neu5Ac(a2-3)Gal(b1-4)[Fuc(a1-3)]GlcNAc
Outline: as §1

[9] = target: Neu5Ac(a2-3)Gal(b1-4)[Fuc(a1-3)]GlcNAc(b1-3)Gal
Outline: as §1

[10] = target: Neu5Ac(a2-3)Gal(b1-4)[Fuc(a1-3)]GlcNAc(b1-3)Gal(b1-4)GlcNAc
Outline: as §1

[11] = target: Neu5Ac(a2-3)Gal(b1-4)[Fuc(a1-3)]GlcNAc(b1-3)Gal(b1-4)[Fuc(a1-3)]GlcNAc(b1-3)Gal(b1-4)[Fuc(a1-3)]GlcNAc
Outline: as §1

[12] = target: Neu5Ac(a2-3)Gal(b1-4)[Fuc(a1-3)]GlcNAc6S
Outline: as §1

[13] = target: Neu5Ac(a2-3)Gal6S(b1-4)GlcNAc
Outline: as §1

[14] = target: Neu5Ac(a2-3)Gal6S(b1-4)[Fuc(a1-3)]GlcNAc
Outline: as §1

Neu5Ac(a2-3)GalNAc = target: Neu5Ac(a2-3)GalNAc
Outline: as §1

[15] = target: Neu5Ac(a2-3)GalNAc(b1-4)GlcNAc
Outline: as §1

[16] = target: Neu5Ac(a2-3)[GalNAc(b1-4)]Gal(b1-4)Glc
Outline: as §1

[17] = target: Neu5Ac(a2-3)[GalNAc(b1-4)]Gal(b1-4)GlcNAc
Outline: as §1

[18] = target: Neu5Ac(a2-3)[Neu5Ac(a2-6)]GalNAc
Outline: as §1

Neu5Ac(a2-6)Gal = target: Neu5Ac(a2-6)Gal
Outline: as §1

Neu5Ac(a2-6)Gal(b1-4)Glc = target: Neu5Ac(a2-6)Gal(b1-4)Glc
Outline: as §1

[19] = target: Neu5Ac(a2-6)Gal(b1-4)GlcNAc
Outline: as §1

[20] = target: Neu5Ac(a2-6)Gal(b1-4)GlcNAc(b1-2)Man(a1-3)[Neu5Ac(a2-6)Gal(b1-4)GlcNAc(b1-2)Man(a1-6)]Man(b1-4)GlcNAc(b1-4)GlcNAc
Outline: as §1

[21] = target: Neu5Ac(a2-6)Gal(b1-4)GlcNAc(b1-3)Gal(b1-4)GlcNAc
Outline: as §1

[22] = target: Neu5Ac(a2-6)Gal(b1-4)GlcNAc(b1-3)Gal(b1-4)[Fuc(a1-3)]GlcNAc(b1-3)Gal(b1-4)[Fuc(a1-3)]GlcNAc
Outline: as §1

[23] = target: Neu5Ac(a2-6)Gal(b1-4)GlcNAc6S
Outline: as §1

Neu5Ac(a2-6)GalNAc = target: Neu5Ac(a2-6)GalNAc
Outline: as §1

[24] = target: Neu5Ac(a2-6)GalNAc(b1-4)GlcNAc
Outline: as §1

Neu5Ac(a2-8)Neu5Ac = target: Neu5Ac(a2-8)Neu5Ac
Outline: as §1

[25] = target: Neu5Ac(a2-8)Neu5Ac(a2-3)Gal(b1-4)Glc
Outline: as §1

[26] = target: Neu5Ac(a2-8)Neu5Ac(a2-3)[GalNAc(b1-4)]Gal(b1-4)Glc
Outline: as §1

[27] = target: Neu5Ac(a2-8)Neu5Ac(a2-8)Neu5Ac
Outline: as §1

[28] = target: Neu5Ac(a2-8)Neu5Ac(a2-8)Neu5Ac(a2-3)Gal(b1-4)Glc
Outline: as §1

[29] = target: Neu5Ac(a2-8)Neu5Ac(a2-8)Neu5Ac(a2-3)[GalNAc(b1-4)]Gal(b1-4)Glc
Outline: as §1

[30] = target: Neu5Ac(a2-8)Neu5Ac(a2-8)Neu5Ac(a2-8)Neu5Ac(a2-3)[GalNAc(b1-4)]Gal(b1-4)Glc
Outline: as §1

[31] = target: Neu5Ac(b2-6)Gal(b1-4)GlcNAc
Outline: as §1

Neu5Ac(b2-6)GalNAc = target: Neu5Ac(b2-6)GalNAc
Outline: as §1

[32] = target: Neu5Ac9Ac(a2-6)Gal(b1-4)GlcNAc
Outline: as §1

[33] = target: Neu5Gc(a2-3)Gal(b1-3)GlcNAc
Outline: as §1

[34] = target: Neu5Gc(a2-3)Gal(b1-3)[Fuc(a1-4)]GlcNAc
Outline: as §1

Neu5Gc(a2-3)Gal(b1-4)Glc = target: Neu5Gc(a2-3)Gal(b1-4)Glc
Outline: as §1

[35] = target: Neu5Gc(a2-3)Gal(b1-4)GlcNAc
Outline: as §1

[36] = target: Neu5Gc(a2-3)Gal(b1-4)[Fuc(a1-3)]GlcNAc
Outline: as §1

[37] = target: Neu5Gc(a2-6)Gal(b1-4)GlcNAc
Outline: as §1

B1: CD23 (Homo sapiens) (protein)
chain: MELQVSSGFVCNTCPEKWINFQRKCYYFGKGTKQWVHARYACDDMEGQLVSIHSPEEQDFLTKRASHTGSWIGLRNLDLKGEFIWVDGSHVDYSNWAPGEPTSRSQSEDCVMMRGSGRWNDAFCDRKLGAWVCDRLATCTPPASEGSAESMGPDSRPDPDGRLPTPSAPLHS
For B1, the “glycan array binding signal (z-score)” value (Neu5Ac(a2-3)Gal(b1-4)Glc) was -0.478, the “glycan array binding signal (z-score)” value [1] was -0.511 and the “glycan array binding signal (z-score)” value [2] was 0.097. For the same binder, the “glycan array binding signal (z-score)” value [3] was -0.234, the “glycan array binding signal (z-score)” value [4] was -0.45 and the “glycan array binding signal (z-score)” value [5] was -0.404. For the same binder, the “glycan array binding signal (z-score)” value [6] was -0.122, the “glycan array binding signal (z-score)” value [7] was 0.044 and the “glycan array binding signal (z-score)” value [8] was 0.174. The “glycan array binding signal (z-score)” value [9] was -0.209, the “glycan array binding signal (z-score)” value [10] was 0.869 and the “glycan array binding signal (z-score)” value [11] was 0.004. For the same binder, the “glycan array binding signal (z-score)” value [12] was -0.281, the “glycan array binding signal (z-score)” value [13] was 0.094 and the “glycan array binding signal (z-score)” value [14] was -0.309. The “glycan array binding signal (z-score)” value (Neu5Ac(a2-3)GalNAc) was -0.36, the “glycan array binding signal (z-score)” value [15] was -0.32 and the “glycan array binding signal (z-score)” value [16] was -0.35. For the same binder, the “glycan array binding signal (z-score)” value [17] was 0.017, the “glycan array binding signal (z-score)” value [18] was -0.095 and the “glycan array binding signal (z-score)” value (Neu5Ac(a2-6)Gal) was -0.278. The “glycan array binding signal (z-score)” value (Neu5Ac(a2-6)Gal(b1-4)Glc) was -0.153, the “glycan array binding signal (z-score)” value [19] was -0.056 and the “glycan array binding signal (z-score)” value [20] was 0.032. For the same binder, the “glycan array binding signal (z-score)” value [21] was -0.232, the “glycan array binding signal (z-score)” value [22] was -0.109 and the “glycan array binding signal (z-score)” value [23] was -0.002. For the same binder, the “glycan array binding signal (z-score)” value (Neu5Ac(a2-6)GalNAc) was -0.238, the “glycan array binding signal (z-score)” value [24] was -0.245 and the “glycan array binding signal (z-score)” value (Neu5Ac(a2-8)Neu5Ac) was -0.457. The “glycan array binding signal (z-score)” value [25] was -0.257, the “glycan array binding signal (z-score)” value [26] was -0.532 and the “glycan array binding signal (z-score)” value [27] was -0.337. The “glycan array binding signal (z-score)” value [28] was -0.498, the “glycan array binding signal (z-score)” value [29] was -0.425 and the “glycan array binding signal (z-score)” value [30] was -0.351. The “glycan array binding signal (z-score)” value [31] was -0.167, the “glycan array binding signal (z-score)” value (Neu5Ac(b2-6)GalNAc) was -0.258 and the “glycan array binding signal (z-score)” value [32] was -0.441. For the same binder, the “glycan array binding signal (z-score)” value [33] was -0.207, the “glycan array binding signal (z-score)” value [34] was 0.043 and the “glycan array binding signal (z-score)” value (Neu5Gc(a2-3)Gal(b1-4)Glc) was 0.255. For the same binder, the “glycan array binding signal (z-score)” value [35] was 0.062, the “glycan array binding signal (z-score)” value [36] was -0.112 and the “glycan array binding signal (z-score)” value [37] was 0.224.
